Among the data in publication PMC6718413, “Improving mass spectrometry analysis of protein structures with arginine-selective chemical cross-linkers” (Nature Communications, 2019) are binding values, retold here.

By UniProt entry, the sequences of proteins in these tests, tags left out. Residues count along the entry.
N-terminal domains (NTD) of alpha-kinase 1 (ALPK1), residues 1-473 (Q96QP1, residues 1-473): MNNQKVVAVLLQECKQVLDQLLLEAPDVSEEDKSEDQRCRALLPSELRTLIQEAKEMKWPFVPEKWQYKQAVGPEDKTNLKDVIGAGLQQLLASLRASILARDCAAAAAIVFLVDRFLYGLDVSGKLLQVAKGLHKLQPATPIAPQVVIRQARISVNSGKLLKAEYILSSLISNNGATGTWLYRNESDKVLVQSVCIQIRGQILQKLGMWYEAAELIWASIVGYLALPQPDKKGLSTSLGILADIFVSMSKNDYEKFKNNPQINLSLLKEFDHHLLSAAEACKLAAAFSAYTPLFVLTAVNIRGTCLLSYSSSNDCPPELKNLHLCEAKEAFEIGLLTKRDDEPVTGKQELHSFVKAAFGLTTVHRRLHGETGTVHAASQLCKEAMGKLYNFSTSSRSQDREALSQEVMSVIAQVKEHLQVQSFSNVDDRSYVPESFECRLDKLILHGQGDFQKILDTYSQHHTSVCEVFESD
ALPK1 kinase domain (KD), residues 959-1244 (Q96QP1, residues 959-1244): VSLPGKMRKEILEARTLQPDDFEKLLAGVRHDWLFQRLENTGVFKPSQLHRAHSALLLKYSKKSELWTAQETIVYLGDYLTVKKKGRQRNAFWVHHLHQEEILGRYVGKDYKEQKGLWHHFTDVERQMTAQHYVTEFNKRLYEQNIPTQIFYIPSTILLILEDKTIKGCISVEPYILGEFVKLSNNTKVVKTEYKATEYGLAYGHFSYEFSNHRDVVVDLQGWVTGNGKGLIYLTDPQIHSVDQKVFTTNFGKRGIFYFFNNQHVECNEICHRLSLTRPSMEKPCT

These are yes or no findings as the source states them, for the method shown. Some binding calls cover weakened binding; strength is not graded here.

Assay [1] deals with N-terminal domains (NTD) of alpha-kinase 1 (ALPK1), residues 1-473 (human) (UniProt Q96QP1). Put plainly: co-purification; GST-ALPK1 (1–473) and ALPK1 (959–1244) co-expressed in E. coli; glutathione sepharose, GST removed by HRV 3C, gel filtration. (SEC sorts molecules by how far they enter the pores of the column.)
The target is the same in assay [2]. In words: cross-linking; ALPK1 NTD-KD complex (0.6 μg/μl) with 0.1, 0.2 mM KArGO at RT for 15 min; LC-MS/MS; compared with NTD alone; both purified.
Assay [3] addresses T1, C-terminal domain (CTD) of Utp5 (residue 433-591) (UniProt Q04177).
T1 sequence: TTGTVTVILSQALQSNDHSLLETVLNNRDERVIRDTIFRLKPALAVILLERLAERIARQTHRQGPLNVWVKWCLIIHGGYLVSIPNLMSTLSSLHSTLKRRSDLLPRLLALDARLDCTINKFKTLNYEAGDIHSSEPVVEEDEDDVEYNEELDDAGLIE
Put plainly: cross-linking; UtpA sub-complex (0.5 μg/μl) with 0.1, 0.2 and 0.4 mM KArGO in 50 mM borate, 50 mM HEPES (pH 7.5) at RT for 15 min; LC-MS/MS; both purified.

Assay [4] concerns the target T1, C-terminal domain (CTD) of Utp5 (residue 433-591). Put plainly: co-purification; two His6-Smt3-tagged CTDs co-expressed; HisTrap, tags cleaved with Ulp1, heparin column, second HisTrap pass.
Assay [5] deals with T2, CTD of Utp15 (residue 380-513) (UniProt Q04305).
T2 sequence: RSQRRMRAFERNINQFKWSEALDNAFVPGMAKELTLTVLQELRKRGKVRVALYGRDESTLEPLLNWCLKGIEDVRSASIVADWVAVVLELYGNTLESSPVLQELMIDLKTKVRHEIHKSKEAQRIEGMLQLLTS
Put plainly: cross-linking; UtpA sub-complex (0.5 μg/μl) with 0.1, 0.2 and 0.4 mM KArGO in 50 mM borate, 50 mM HEPES (pH 7.5) at RT for 15 min; LC-MS/MS; both purified.

Assay [6] addresses T2, CTD of Utp15 (residue 380-513). In words: cross-linking; UtpA sub-complex (0.5 μg/μL) with 0.5 mM BS^3 at RT for 45 min, quenched with 20 mM NH4HCO3; LC-MS/MS; both purified.
For assay [7], the target named is T3, CTD of Utp9 (residue 361-569) (UniProt P38882).
T3 sequence: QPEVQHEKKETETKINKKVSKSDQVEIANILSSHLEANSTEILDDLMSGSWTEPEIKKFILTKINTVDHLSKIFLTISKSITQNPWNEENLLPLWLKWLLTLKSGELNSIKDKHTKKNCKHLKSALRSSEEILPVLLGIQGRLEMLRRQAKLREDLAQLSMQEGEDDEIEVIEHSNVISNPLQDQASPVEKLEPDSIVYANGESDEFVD
Put plainly: co-purification; two His6-Smt3-tagged CTDs co-expressed; HisTrap, tags cleaved with Ulp1, heparin column, second HisTrap pass.

As for “ALPK1 kinase domain (KD), residues 959-1244 (from UniProt Q96QP1 959-1244) (domain or fragment)”, the binding result in assay [1] and in assay [2] was “binds” throughout.

B1: CTD of Utp15 (residue 380-513) (domain or fragment, UniProt Q04305 380-513, looked up)
chain: RSQRRMRAFERNINQFKWSEALDNAFVPGMAKELTLTVLQELRKRGKVRVALYGRDESTLEPLLNWCLKGIEDVRSASIVADWVAVVLELYGNTLESSPVLQELMIDLKTKVRHEIHKSKEAQRIEGMLQLLTS
notes: Utp15, subunit of UtpA, residues 380-513; The tags were cleaved with Ulp1; also called Utp15 CTD
In the case of B1, the binding entry in assay [3] and in assay [4] was “binds” each time.

B2: CTD of Utp9 (residue 361-569) (domain or fragment, UniProt P38882 361-569)
chain: QPEVQHEKKETETKINKKVSKSDQVEIANILSSHLEANSTEILDDLMSGSWTEPEIKKFILTKINTVDHLSKIFLTISKSITQNPWNEENLLPLWLKWLLTLKSGELNSIKDKHTKKNCKHLKSALRSSEEILPVLLGIQGRLEMLRRQAKLREDLAQLSMQEGEDDEIEVIEHSNVISNPLQDQASPVEKLEPDSIVYANGESDEFVD
As for B2, the binding result in assay [5], in assay [3] and in assay [6] was “binds” each time.

B3: CTD of Utp8 (residue 518-713) (domain or fragment, UniProt P53276 518-713)
chain: DYPKTLTFLLTHPLFPLSRTRNLLSLLRDQPRLFKQAIVTCPNLPLNELLEELFSIRNRELLLDISFRILQDFTRDSIKQEMKKLSKLDVQNFIEFITSGGEDSSPECFNPSQSTQLFQLLSLVLDSIGLFSLEGALLENLTLYIDKQVEIAERNTELWNLIDTKGFQHGFASSTFDNGTSQKRALPTYTMEYLDI
Consider B3, for which the binding entry in assay [7] was “binds”.
